Laboratory results taken from article doi:10.1101/2023.05.11.540316.

Amino acid sequences for entries named in this document (tags omitted).
UniProt O35274: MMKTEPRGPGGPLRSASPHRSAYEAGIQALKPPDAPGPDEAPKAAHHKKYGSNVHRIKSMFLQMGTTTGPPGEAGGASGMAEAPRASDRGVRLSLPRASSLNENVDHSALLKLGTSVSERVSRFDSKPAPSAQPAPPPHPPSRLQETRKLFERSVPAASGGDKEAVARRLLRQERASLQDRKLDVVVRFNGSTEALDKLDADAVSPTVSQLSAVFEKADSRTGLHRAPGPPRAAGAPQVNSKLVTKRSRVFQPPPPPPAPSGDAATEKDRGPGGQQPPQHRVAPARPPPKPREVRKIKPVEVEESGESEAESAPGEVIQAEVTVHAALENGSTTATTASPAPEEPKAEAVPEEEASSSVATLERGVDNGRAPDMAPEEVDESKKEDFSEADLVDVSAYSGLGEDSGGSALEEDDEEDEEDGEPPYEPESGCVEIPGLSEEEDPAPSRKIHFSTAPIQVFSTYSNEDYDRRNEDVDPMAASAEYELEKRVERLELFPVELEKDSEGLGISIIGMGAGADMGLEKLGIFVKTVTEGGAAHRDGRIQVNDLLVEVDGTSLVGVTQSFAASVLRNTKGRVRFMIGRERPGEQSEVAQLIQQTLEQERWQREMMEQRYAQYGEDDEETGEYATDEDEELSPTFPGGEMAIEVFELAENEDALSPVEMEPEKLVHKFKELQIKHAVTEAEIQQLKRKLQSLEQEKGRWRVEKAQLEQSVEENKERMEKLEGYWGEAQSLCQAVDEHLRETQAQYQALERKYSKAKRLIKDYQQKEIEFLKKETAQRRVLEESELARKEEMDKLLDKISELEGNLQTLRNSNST
UniProt P61765: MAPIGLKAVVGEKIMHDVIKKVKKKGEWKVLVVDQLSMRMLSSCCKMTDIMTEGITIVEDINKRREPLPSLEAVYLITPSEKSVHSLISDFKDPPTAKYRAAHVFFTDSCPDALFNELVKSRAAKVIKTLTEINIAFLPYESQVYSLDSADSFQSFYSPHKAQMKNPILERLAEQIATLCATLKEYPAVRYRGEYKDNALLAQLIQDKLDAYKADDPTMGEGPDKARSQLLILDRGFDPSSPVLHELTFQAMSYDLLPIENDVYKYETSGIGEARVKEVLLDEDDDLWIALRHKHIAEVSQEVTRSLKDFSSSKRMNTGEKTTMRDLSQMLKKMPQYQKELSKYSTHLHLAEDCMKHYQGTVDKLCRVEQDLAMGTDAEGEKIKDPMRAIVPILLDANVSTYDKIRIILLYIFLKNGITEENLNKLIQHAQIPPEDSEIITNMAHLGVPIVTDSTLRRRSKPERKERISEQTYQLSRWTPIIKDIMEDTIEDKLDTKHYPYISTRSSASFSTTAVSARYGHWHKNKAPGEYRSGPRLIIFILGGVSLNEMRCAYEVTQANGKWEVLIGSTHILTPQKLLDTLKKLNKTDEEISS

How the values were obtained:
GFP-DDHD2 [1] = target: T1, GFP-DDHD2 (UniProt D3ZJ91); assay: affinity purification with mass spectrometry
T1 sequence: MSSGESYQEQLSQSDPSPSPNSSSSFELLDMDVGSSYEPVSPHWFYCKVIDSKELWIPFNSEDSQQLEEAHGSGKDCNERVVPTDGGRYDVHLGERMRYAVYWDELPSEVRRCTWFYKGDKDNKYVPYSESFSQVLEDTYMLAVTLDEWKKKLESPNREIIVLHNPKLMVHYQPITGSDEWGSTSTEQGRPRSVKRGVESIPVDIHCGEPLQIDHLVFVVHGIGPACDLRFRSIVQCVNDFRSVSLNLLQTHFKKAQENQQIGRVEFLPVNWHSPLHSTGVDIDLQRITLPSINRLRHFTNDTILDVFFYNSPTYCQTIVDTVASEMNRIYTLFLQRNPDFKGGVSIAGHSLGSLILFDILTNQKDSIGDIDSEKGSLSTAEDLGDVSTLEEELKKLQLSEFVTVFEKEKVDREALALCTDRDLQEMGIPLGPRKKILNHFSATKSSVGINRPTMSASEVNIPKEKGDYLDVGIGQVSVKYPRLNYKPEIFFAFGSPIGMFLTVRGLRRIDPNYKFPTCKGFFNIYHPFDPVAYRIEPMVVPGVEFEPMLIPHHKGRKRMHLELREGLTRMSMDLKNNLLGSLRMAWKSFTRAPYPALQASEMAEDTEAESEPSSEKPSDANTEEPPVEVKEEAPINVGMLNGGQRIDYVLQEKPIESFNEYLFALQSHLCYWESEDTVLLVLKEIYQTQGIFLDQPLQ

GFP-DDHD2 [2] = target: T1, GFP-DDHD2; assay: affinity purification with mass spectrometry; remark: listed apart in the source

| binding (GFP-DDHD2 [1]) | binding (GFP-DDHD2 [2]) | Substance |
| --- | --- | --- |
| binds |  | Ppp1r9b (from UniProt O35274 1-817) |
| binds | binds | Syntaxin-binding protein 1 (STXBP1), endogenous in PC12 cells (from UniProt P61765 1-594) |

Read-outs that look alike come from different tables or passages of the source. No constants are given. Whether binding was seen depends on the method and setting. In cells and extracts the contact can be indirect. Here binding means that the protein was enriched with, or labelled near, the bait; the list need not be complete. Tags and fused reporters may be left off the sequences shown.
